{"source": "PubChem BioAssay AID1671195 | Yale University | 2021", "aim": "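Regulators of LDL receptor activity judged by labelled LDL uptake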 (primary screen)", "system": "human Huh7 hepatoma cells", "knock-down reagent": "siRNA pool against human genes, 18 nM", "duration": "about 2 to 2.5 days of knockdown, then 8 h LDL uptake", "challenge": "DiI-labelled LDL at 30 µg/ml for 8 h, in lipoprotein-deficient serum medium", "measurement": "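Per-cell DiI-LDL intensity by automated imaging; well means scaled to the plate median and given as a robust z-score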", "direction": "robust z-score: higher = more LDL uptake after knockdown", "hit rule": "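a gene counts as active if at least two replicate z-scores exceed ±2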", "note": "Here is an unselected part of about 22,000 reagents. Over the whole deposit, about 1,510 (6.9%) were called active. 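Active includes knockdowns raising or lowering LDL uptake; positive z-scores mean more uptake, negative mean less.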 Unmarked entries are inactive. Reagent sequences are not shown."}
{"Gene":"GAL3ST1 (galactose-3-O-sulfotransferase 1)","robust z-score, replicate 1":-0.529,"robust z-score, replicate 2":-1.31,"robust z-score, replicate 3":-0.869}
{"Gene":"CHPT1 (choline phosphotransferase 1)","robust z-score, replicate 1":0.459,"robust z-score, replicate 2":0.106,"robust z-score, replicate 3":-0.0662}
{"Gene":"CYP2J2 (cytochrome P450 family 2 subfamily J member 2)","robust z-score, replicate 1":0.818,"robust z-score, replicate 2":0.474,"robust z-score, replicate 3":0.11}
{"Gene":"AKAP10 (A-kinase anchoring protein 10)","robust z-score, replicate 1":-1.6,"robust z-score, replicate 2":-1.85,"robust z-score, replicate 3":-1.47}
{"Gene":"LIPT2 (lipoyl(octanoyl) transferase 2)","robust z-score, replicate 1":-0.541,"robust z-score, replicate 2":-0.259,"robust z-score, replicate 3":-0.265}
{"Gene":"NOX4P1 (NOX4 pseudogene 1)","robust z-score, replicate 1":0.275,"robust z-score, replicate 2":0.0582,"robust z-score, replicate 3":-0.425}
{"Gene":"C20orf141 (chromosome 20 open reading frame 141)","robust z-score, replicate 1":-0.931,"robust z-score, replicate 2":-0.976,"robust z-score, replicate 3":-1.2}
{"Gene":"FAM114A2 (family with sequence similarity 114 member A2)","robust z-score, replicate 1":-0.359,"robust z-score, replicate 2":0.223,"robust z-score, replicate 3":-0.773}
{"Gene":"NUDC (nuclear distribution C, dynein complex regulator)","robust z-score, replicate 1":-1.85,"robust z-score, replicate 2":-2.44,"robust z-score, replicate 3":-0.996}
{"Gene":"LINC01521 (long independently transcribed non-coding RNA 1521)","robust z-score, replicate 1":-0.667,"robust z-score, replicate 2":-0.00361,"robust z-score, replicate 3":-1.39}
{"Gene":"HOXA5 (homeobox A5)","robust z-score, replicate 1":-0.969,"robust z-score, replicate 2":-0.111,"robust z-score, replicate 3":-0.0672}
{"Gene":"FAIM (Fas apoptotic inhibitory molecule)","robust z-score, replicate 1":0.207,"robust z-score, replicate 2":-0.726,"robust z-score, replicate 3":0.882}
{"Gene":"RSU1 (Ras suppressor protein 1)","robust z-score, replicate 1":1.12,"robust z-score, replicate 2":1.52,"robust z-score, replicate 3":0.335}
{"Gene":"OSBPL5 (oxysterol binding protein like 5)","robust z-score, replicate 1":-1.46,"robust z-score, replicate 2":-1.28,"robust z-score, replicate 3":-1.46}
{"Gene":"UBTFL2 (UBTF like 2 (pseudogene))","robust z-score, replicate 1":0.368,"robust z-score, replicate 2":-0.336,"robust z-score, replicate 3":-0.677}
{"Gene":"REPS2 (RALBP1 associated Eps domain containing 2)","robust z-score, replicate 1":-1.05,"robust z-score, replicate 2":-0.47,"robust z-score, replicate 3":-0.327}
{"Gene":"RAX2 (retina and anterior neural fold homeobox 2)","robust z-score, replicate 1":0.954,"robust z-score, replicate 2":0.766,"robust z-score, replicate 3":0.635}
{"Gene":"SETD9 (SET domain containing 9)","robust z-score, replicate 1":-1.23,"robust z-score, replicate 2":0.0176,"robust z-score, replicate 3":-0.959}
{"Gene":"KCNQ1DN (KCNQ1 downstream neighbor)","robust z-score, replicate 1":0.187,"robust z-score, replicate 2":1.26,"robust z-score, replicate 3":-0.0225}
{"Gene":"MIMS1 (mitochondrial inner membrane structural 1)","robust z-score, replicate 1":-1.34,"robust z-score, replicate 2":-1.6,"robust z-score, replicate 3":-1.26}
{"Gene":"ATG4C (autophagy related 4C cysteine peptidase)","robust z-score, replicate 1":-1.11,"robust z-score, replicate 2":-0.968,"robust z-score, replicate 3":-1.46}
{"Gene":"LINC00470 (long independently transcribed non-coding RNA 470)","robust z-score, replicate 1":-0.0663,"robust z-score, replicate 2":-0.628,"robust z-score, replicate 3":-0.63}
{"Gene":"KRTCAP2 (keratinocyte associated protein 2)","robust z-score, replicate 1":-0.953,"robust z-score, replicate 2":-0.54,"robust z-score, replicate 3":-0.619}
{"Gene":"RIN1 (Ras and Rab interactor 1)","robust z-score, replicate 1":"-1.91 (active)","robust z-score, replicate 2":-1.15,"robust z-score, replicate 3":-2.29}
